{
  "source": "the supplement of paper PMC4604168 (melanoma cell lines)",
  "note": "Some of the results follow. Many values rest on one well or one pass, so single values are uncertain.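 Cells were imaged in 1,536-well plates, and nuclei stained with an antibody against cleaved PARP were counted against all DNA-stained nuclei to give the apoptosis fraction. Screening doses were chosen to leave most cells alive, and resting and induced cleaved-PARP levels differ strongly between cell lines.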",
  "data": [
    {"tested_on": "SkMel5", "assay": "cleaved PARP positive nuclei fraction relative to DMSO control; melanoma cells; higher = more apoptosis", "details": "library dose: low library concentration; 72 h", "units": {"cleaved PARP positive nuclei fraction": "%"}, "values": [
      {"smiles": "CO[C@H]1C[C@@H]2CC[C@@H](C)[C@@](O)(O2)C(=O)C(=O)N2CCCC[C@H]2C(=O)O[C@H]([C@H](C)C[C@@H]2CC[C@@H](OCCO)[C@H](OC)C2)CC(=O)[C@H](C)/C=C(\\C)[C@@H](O)[C@@H](OC)C(=O)[C@H](C)C[C@H](C)/C=C/C=C/C=C/1C", "note": "[everolimus] + CC1(C)NC(=O)N(c2ccc([N+](=O)[O-])c(C(F)(F)F)c2)C1=O [nilutamide] (first compound 0.02 µM, partner dose 1 µM)", "cleaved PARP positive nuclei fraction": 94},
      {"smiles": "CO[C@H]1C[C@@H]2CC[C@@H](C)[C@@](O)(O2)C(=O)C(=O)N2CCCC[C@H]2C(=O)O[C@H]([C@H](C)C[C@@H]2CC[C@@H](OCCO)[C@H](OC)C2)CC(=O)[C@H](C)/C=C(\\C)[C@@H](O)[C@@H](OC)C(=O)[C@H](C)C[C@H](C)/C=C/C=C/C=C/1C", "note": "[everolimus] + C=CCn1c(=O)c2cnc(Nc3ccc(N4CCN(C)CC4)cc3)nc2n1-c1cccc(C(C)(C)O)n1 [MK1775] (first compound 0.02 µM, partner dose 0.02 µM)", "cleaved PARP positive nuclei fraction": 200},
      {"smiles": "CO[C@H]1C[C@@H]2CC[C@@H](C)[C@@](O)(O2)C(=O)C(=O)N2CCCC[C@H]2C(=O)O[C@H]([C@H](C)C[C@@H]2CC[C@@H](OCCO)[C@H](OC)C2)CC(=O)[C@H](C)/C=C(\\C)[C@@H](O)[C@@H](OC)C(=O)[C@H](C)C[C@H](C)/C=C/C=C/C=C/1C", "note": "[everolimus] + CC(C)(C)c1cnc(CSc2cnc(NC(=O)C3CCNCC3)s2)o1 [SNS-032] (first compound 0.02 µM, partner dose 0.01 µM)", "cleaved PARP positive nuclei fraction": 46.5},
      {"smiles": "CO[C@H]1C[C@@H]2CC[C@@H](C)[C@@](O)(O2)C(=O)C(=O)N2CCCC[C@H]2C(=O)O[C@H]([C@H](C)C[C@@H]2CC[C@@H](OCCO)[C@H](OC)C2)CC(=O)[C@H](C)/C=C(\\C)[C@@H](O)[C@@H](OC)C(=O)[C@H](C)C[C@H](C)/C=C/C=C/C=C/1C", "note": "[everolimus] + Cc1cc([N+](=O)[O-])ccc1NS(=O)(=O)c1cc(Cl)ccc1Cl [FH535] (first compound 0.02 µM, partner dose 1 µM)", "cleaved PARP positive nuclei fraction": 77.6},
      {"smiles": "CO[C@H]1C[C@@H]2CC[C@@H](C)[C@@](O)(O2)C(=O)C(=O)N2CCCC[C@H]2C(=O)O[C@H]([C@H](C)C[C@@H]2CC[C@@H](OCCO)[C@H](OC)C2)CC(=O)[C@H](C)/C=C(\\C)[C@@H](O)[C@@H](OC)C(=O)[C@H](C)C[C@H](C)/C=C/C=C/C=C/1C", "note": "[everolimus] + O=C(O)c1ccc(-c2c[nH]c3ncc(-c4ccccc4)cc23)cc1C1CCCC1 [GSK650394] (first compound 0.02 µM, partner dose 0.16 µM)", "cleaved PARP positive nuclei fraction": 123},
      {"smiles": "CO[C@H]1C[C@@H]2CC[C@@H](C)[C@@](O)(O2)C(=O)C(=O)N2CCCC[C@H]2C(=O)O[C@H]([C@H](C)C[C@@H]2CC[C@@H](OCCO)[C@H](OC)C2)CC(=O)[C@H](C)/C=C(\\C)[C@@H](O)[C@@H](OC)C(=O)[C@H](C)C[C@H](C)/C=C/C=C/C=C/1C", "note": "[everolimus] + COc1ccc(COc2ccc(Cc3cnc(N)nc3N)cc2OC)cc1 [GW2580] (first compound 0.02 µM, partner dose 1 µM)", "cleaved PARP positive nuclei fraction": 64.3},
      {"smiles": "CO[C@H]1C[C@@H]2CC[C@@H](C)[C@@](O)(O2)C(=O)C(=O)N2CCCC[C@H]2C(=O)O[C@H]([C@H](C)C[C@@H]2CC[C@@H](OCCO)[C@H](OC)C2)CC(=O)[C@H](C)/C=C(\\C)[C@@H](O)[C@@H](OC)C(=O)[C@H](C)C[C@H](C)/C=C/C=C/C=C/1C", "note": "[everolimus] + O=S(=O)(c1ccccc1)N(CC(F)(F)F)c1ccc(C(O)(C(F)(F)F)C(F)(F)F)cc1 [T0901317] (first compound 0.02 µM, partner dose 1.4 µM)", "cleaved PARP positive nuclei fraction": 86.5},
      {"smiles": "CO[C@H]1C[C@@H]2CC[C@@H](C)[C@@](O)(O2)C(=O)C(=O)N2CCCC[C@H]2C(=O)O[C@H]([C@H](C)C[C@@H]2CC[C@@H](OCCO)[C@H](OC)C2)CC(=O)[C@H](C)/C=C(\\C)[C@@H](O)[C@@H](OC)C(=O)[C@H](C)C[C@H](C)/C=C/C=C/C=C/1C", "note": "[everolimus] + COc1cc(Nc2ncc(F)c(Nc3ccc4c(n3)NC(=O)C(C)(C)O4)n2)cc(OC)c1OC [Tamatinib] (first compound 0.02 µM, partner dose 0.4 µM)", "cleaved PARP positive nuclei fraction": 127},
      {"smiles": "CO[C@H]1C[C@@H]2CC[C@@H](C)[C@@](O)(O2)C(=O)C(=O)N2CCCC[C@H]2C(=O)O[C@H]([C@H](C)C[C@@H]2CC[C@@H](OCCO)[C@H](OC)C2)CC(=O)[C@H](C)/C=C(\\C)[C@@H](O)[C@@H](OC)C(=O)[C@H](C)C[C@H](C)/C=C/C=C/C=C/1C", "note": "[everolimus] + CO[C@@H]1[C@H](N(C)C(=O)c2ccccc2)C[C@H]2O[C@]1(C)n1c3ccccc3c3c4c(c5c6ccccc6n2c5c31)C(=O)NC4 [Midostaurin] (first compound 0.02 µM, partner dose 0.08 µM)", "cleaved PARP positive nuclei fraction": 128},
      {"smiles": "CO[C@H]1C[C@@H]2CC[C@@H](C)[C@@](O)(O2)C(=O)C(=O)N2CCCC[C@H]2C(=O)O[C@H]([C@H](C)C[C@@H]2CC[C@@H](OCCO)[C@H](OC)C2)CC(=O)[C@H](C)/C=C(\\C)[C@@H](O)[C@@H](OC)C(=O)[C@H](C)C[C@H](C)/C=C/C=C/C=C/1C", "note": "[everolimus] + CCN(CC)CCCCNc1ncc2cc(-c3cc(OC)cc(OC)c3)c(NC(=O)NC(C)(C)C)nc2n1 [PD173074] (first compound 0.02 µM, partner dose 0.1 µM)", "cleaved PARP positive nuclei fraction": 346},
      {"smiles": "CO[C@H]1C[C@@H]2CC[C@@H](C)[C@@](O)(O2)C(=O)C(=O)N2CCCC[C@H]2C(=O)O[C@H]([C@H](C)C[C@@H]2CC[C@@H](OCCO)[C@H](OC)C2)CC(=O)[C@H](C)/C=C(\\C)[C@@H](O)[C@@H](OC)C(=O)[C@H](C)C[C@H](C)/C=C/C=C/C=C/1C", "note": "[everolimus] + Cc1cc(N2CCOCC2)cc2[nH]c(-c3c(NC[C@@H](O)c4cccc(Cl)c4)cc[nH]c3=O)nc12 [BMS536924] (first compound 0.02 µM, partner dose 0.2 µM)", "cleaved PARP positive nuclei fraction": 109},
      {"smiles": "CO[C@H]1C[C@@H]2CC[C@@H](C)[C@@](O)(O2)C(=O)C(=O)N2CCCC[C@H]2C(=O)O[C@H]([C@H](C)C[C@@H]2CC[C@@H](OCCO)[C@H](OC)C2)CC(=O)[C@H](C)/C=C(\\C)[C@@H](O)[C@@H](OC)C(=O)[C@H](C)C[C@H](C)/C=C/C=C/C=C/1C", "note": "[everolimus] + Cn1cc(/C=C2\\C(=O)Nc3cccnc32)c2ccccc21 [GW441756] (first compound 0.02 µM, partner dose 0.4 µM)", "cleaved PARP positive nuclei fraction": 97.8},
      {"smiles": "CO[C@H]1C[C@@H]2CC[C@@H](C)[C@@](O)(O2)C(=O)C(=O)N2CCCC[C@H]2C(=O)O[C@H]([C@H](C)C[C@@H]2CC[C@@H](OCCO)[C@H](OC)C2)CC(=O)[C@H](C)/C=C(\\C)[C@@H](O)[C@@H](OC)C(=O)[C@H](C)C[C@H](C)/C=C/C=C/C=C/1C", "note": "[everolimus] + COc1cc2ncnc(Nc3ccc(Oc4ccccc4)cc3)c2cc1OC [SrcI1] (first compound 0.02 µM, partner dose 2 µM)", "cleaved PARP positive nuclei fraction": 123},
      {"smiles": "CO[C@H]1C[C@@H]2CC[C@@H](C)[C@@](O)(O2)C(=O)C(=O)N2CCCC[C@H]2C(=O)O[C@H]([C@H](C)C[C@@H]2CC[C@@H](OCCO)[C@H](OC)C2)CC(=O)[C@H](C)/C=C(\\C)[C@@H](O)[C@@H](OC)C(=O)[C@H](C)C[C@H](C)/C=C/C=C/C=C/1C", "note": "[everolimus] + CN(NC(=O)CC(=O)NN(C)C(=S)c1ccccc1)C(=S)c1ccccc1 [STA4783] (first compound 0.02 µM, partner dose 0.006 µM)", "cleaved PARP positive nuclei fraction": 75},
      {"smiles": "CO[C@H]1C[C@@H]2CC[C@@H](C)[C@@](O)(O2)C(=O)C(=O)N2CCCC[C@H]2C(=O)O[C@H]([C@H](C)C[C@@H]2CC[C@@H](OCCO)[C@H](OC)C2)CC(=O)[C@H](C)/C=C(\\C)[C@@H](O)[C@@H](OC)C(=O)[C@H](C)C[C@H](C)/C=C/C=C/C=C/1C", "note": "[everolimus] + CCCCCCCCCCCC1=C(O)C(=O)C=C(O)C1=O [Embelin] (first compound 0.02 µM, partner dose 1.2 µM)", "cleaved PARP positive nuclei fraction": 124},
      {"smiles": "CO[C@H]1C[C@@H]2CC[C@@H](C)[C@@](O)(O2)C(=O)C(=O)N2CCCC[C@H]2C(=O)O[C@H]([C@H](C)C[C@@H]2CC[C@@H](OCCO)[C@H](OC)C2)CC(=O)[C@H](C)/C=C(\\C)[C@@H](O)[C@@H](OC)C(=O)[C@H](C)C[C@H](C)/C=C/C=C/C=C/1C", "note": "[everolimus] + COC(=O)c1sccc1S(=O)(=O)Nc1ccc(Nc2ccccc2)cc1OC [GSK0660] (first compound 0.02 µM, partner dose 1 µM)", "cleaved PARP positive nuclei fraction": 73.9},
      {"smiles": "CO[C@H]1C[C@@H]2CC[C@@H](C)[C@@](O)(O2)C(=O)C(=O)N2CCCC[C@H]2C(=O)O[C@H]([C@H](C)C[C@@H]2CC[C@@H](OCCO)[C@H](OC)C2)CC(=O)[C@H](C)/C=C(\\C)[C@@H](O)[C@@H](OC)C(=O)[C@H](C)C[C@H](C)/C=C/C=C/C=C/1C", "note": "[everolimus] + C[C@@H]1CCN(C(=O)CC#N)C[C@@H]1N(C)c1ncnc2[nH]ccc12 [CP690550] (first compound 0.02 µM, partner dose 1 µM)", "cleaved PARP positive nuclei fraction": 59.8}
    ]}
  ]
}
